Oligonucleotides screened, 5′ to 3′:
T1: SAM-II riboswitch RNA pseudoknot, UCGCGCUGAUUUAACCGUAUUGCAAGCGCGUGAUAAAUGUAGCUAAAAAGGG. About 200 hits among about 21,000 compounds.
T2: TPP riboswitch RNA three-way junction, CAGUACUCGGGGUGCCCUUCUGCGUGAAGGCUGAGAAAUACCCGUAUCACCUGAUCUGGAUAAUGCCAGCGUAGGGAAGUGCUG. About 160 hits among about 24,000 compounds.
T3: PreQ1 riboswitch RNA pseudoknot, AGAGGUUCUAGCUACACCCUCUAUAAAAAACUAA. From B. subtilis. About 170 hits among about 24,000 compounds.

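Compounds were printed on reactive glass slides in duplicate spots, a dye-labelled oligonucleotide was laid over them, and the fluorescence left after washing was read. For the PreQ1, TPP and SAM-II riboswitches the laboratory earlier reported (doi:10.1038/s41467-019-09493-3) 1 µM RNA, 2 h, and a rule that included a mean Z-score above 3 (spot signal-to-noise against the whole library), a score well above that on a control array, and duplicate spots agreeing (coefficient of variation under 100). The data file gives only the calls; its cut-offs may differ, and compounds hitting several targets are kept. A missing hit is not proof of no binding, and a hit is not a measured affinity.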 A compound is marked hit if it was called a hit and no hit if it was screened but was not. Compounds were drawn at random from those tested, without regard to their results. A dash means that no call is listed here.

| # | SMILES | T1 | T2 | T3 |
|---|---|---|---|---|
| 1 | `O=C1CNc2ccc(C(=O)NCc3cc4n(n3)CCCNC4)cc2N1` | no hit | no hit | no hit |
| 2 | `CC(=O)Oc1c(C)cc(CNCc2ccccc2-n2ccnc2C)cc1C` | no hit | no hit | no hit |
| 3 | `Cc1cc(C(C)(C)C)cc(C)c1CC1=NCCN1` | no hit | no hit | no hit |
| 4 | `COC(=O)c1[nH]c2ccc(Br)cc2c1N` | no hit | no hit | no hit |
| 5 | `CCN1CC2(CCN(C(=O)c3ccc4c(c3)ncn4CCO)CC2)OC1=O` | no hit | no hit | no hit |
| 6 | `Cc1n[nH]c(C)c1-c1cc(-c2cc[nH]c2)nc(N)c1C#N` | no hit | no hit | no hit |
| 7 | `Cc1nc([N+](=O)[O-])c(SCC(O)CN2CCCCC2)[nH]1` (centres unmarked) | no hit | no hit | no hit |
| 8 | `O=C(O)Cn1nnc(-c2cc(N3CCC(Oc4cc(F)ccc4Br)CC3)no2)n1` | no hit | no hit | no hit |
| 9 | `COc1ccc(-c2cnc3cc(-c4ccc(C)cc4)nn3c2N)cc1OC` | no hit | no hit | no hit |
| 10 | `Cc1cccc(NCc2ccc(Br)cc2)n1` | no hit | no hit | no hit |
| 11 | `COCCCNc1oc(-c2ccccc2)nc1S(=O)(=O)c1ccc(F)cc1` | - | no hit | no hit |
| 12 | `CSCCc1nc(CC(F)(F)F)n(CCO)n1` | no hit | no hit | no hit |
| 13 | `CCOC(=O)N1CCC(NCCc2nc3c(C)c(C)ccc3[nH]2)CC1` | no hit | no hit | no hit |
| 14 | `COc1ccc2c(c1)c(C(=O)N1CCC3(CCNCC3)CC1)c(C)n2C` | no hit | no hit | no hit |
| 15 | `CN(/N=N/c1[nH]cnc1C(=O)NN)C1CCCCC1` | no hit | no hit | no hit |
| 16 | `C=CCn1c(N)c(C(=O)OCC)sc1=S` | no hit | no hit | no hit |
| 17 | `CCc1nccn1CCCNCc1cnc(-c2cccc(C)c2)nc1` | no hit | no hit | no hit |
| 18 | `Oc1ccc(-c2nc3ncccn3c2Nc2cccc(C(F)(F)F)c2)cc1` | no hit | no hit | no hit |
| 19 | `COc1ccc(OC)c(C(=O)c2oc3ccc(Br)cc3c2N)c1` | no hit | no hit | no hit |
| 20 | `CC1CCCCN1CC(O)COc1ccc(C(C)(C)C)cc1` (centres unmarked) | no hit | no hit | no hit |
| 21 | `CC(=O)c1ccc(OCC(O)CN2CCC(C)CC2)cc1` (centres unmarked) | no hit | no hit | no hit |
| 22 | `COc1cc(CNCc2cccnc2)ccc1OCc1ccccc1` | no hit | no hit | no hit |
| 23 | `CCOc1ccc([C@H]2C[C@@H](c3ccccc3)Nc3nc(N)nn32)cc1` | no hit | no hit | no hit |
| 24 | `Cc1ccc(OCC(O)Cn2c(C3CC(=O)N(c4cccc(F)c4)C3)nc3ccccc32)cc1` (centres unmarked) | - | no hit | no hit |
| 25 | `COc1cc(Nc2ncnc3onc(-c4ccc(F)cc4)c23)cc(OC)c1` | - | no hit | no hit |
| 26 | `Nc1ccccc1Sc1ccc2nncn2n1` | no hit | no hit | no hit |
| 27 | `Nc1ncc(Br)cc1S(=O)(=O)Nc1ccc(Cl)cc1` | - | no hit | no hit |
| 28 | `COc1ccc(-c2noc(-c3nnn(-c4ccc(C)cc4C)c3N)n2)cc1` | - | no hit | no hit |
| 29 | `O=C(c1ccccc1N1CCOCC1)N1CCOCC(CO)C1` (centres unmarked) | no hit | no hit | no hit |
| 30 | `C#CCN1C(=O)C2(C(C#N)=C(N)N(c3cccc(C(F)(F)F)c3)C3=C2C(=O)OC3)c2ccccc21` (centres unmarked) | no hit | no hit | no hit |
| 31 | `CCc1ccc(NCc2nnc(-c3ccccc3)o2)cc1` | - | no hit | no hit |
| 32 | `CNc1ncccc1C(=O)N1CCN(Cc2nncn2C)CC(O)C1` (centres unmarked) | no hit | no hit | no hit |
| 33 | `COc1cc(CNC(C)(C)CO)ccc1OCc1ccccc1Cl` | no hit | no hit | no hit |
| 34 | `COc1ccc(C2c3c(-c4ccccc4O)n[nH]c3C(=O)N2CCCO)cc1OC` (centres unmarked) | - | no hit | no hit |
| 35 | `N#Cc1cccc(C(=O)NCCN2CCCC(CO)C2)c1` (centres unmarked) | no hit | no hit | no hit |
| 36 | `Nc1cc(-c2ccccc2)nc2cc(-c3ccccc3)nn12` | no hit | no hit | no hit |
| 37 | `Cc1ncsc1C(=O)N1C[C@@H](CN2CCCCC2)[C@@H](CO)C1` | no hit | no hit | no hit |
| 38 | `CCCNC(=O)Nc1ccc(C)cc1C` | no hit | no hit | no hit |
| 39 | `CCc1nc2ccccc2n1CC(O)COc1ccc(C)cc1` (centres unmarked) | - | no hit | no hit |
| 40 | `CN(CC(=O)N1C[C@H](CO)C[C@H](CN2CCOCC2)C1)Cc1cccnc1` | no hit | no hit | no hit |
| 41 | `Cc1ccc(S(=O)(=O)N(Cc2ccccc2)CC(O)Cn2c3ccc(Cl)cc3c3cc(Cl)ccc32)cc1` (centres unmarked) | no hit | no hit | no hit |
| 42 | `Cn1c(CC2CCNCC2)nnc1SCc1cc(C2CCCCC2)no1` | no hit | no hit | no hit |
| 43 | `Nc1[nH]nc(Nc2ccccc2)c1C(=O)Nc1ccccc1` | no hit | no hit | no hit |
| 44 | `CN1CCN(S(=O)(=O)c2cc(C(=O)O)cc(-c3ccccc3CO)c2)CC1` | no hit | no hit | no hit |
| 45 | `COc1cccc2c(=O)c(NC(=O)N3CCC(CO)CC3)c[nH]c12` | - | no hit | no hit |
| 46 | `CC(C)C1CN(C(=O)CCCCCN)CCC(=O)N1Cc1ccc(F)cc1` (centres unmarked) | no hit | no hit | no hit |
| 47 | `COc1ccc(NS(=O)(=O)c2cc(Br)cnc2N)cc1OC` | - | no hit | no hit |
| 48 | `COc1ccc2cc([C@H](C)C(=O)O)ccc2c1` | no hit | no hit | no hit |
| 49 | `CCOC(=O)c1c[nH]nc1O` | no hit | no hit | no hit |
| 50 | `Cc1ccc(C(C)(C)CC(C)NC2CCN(Cc3ccccc3)CC2)o1` (centres unmarked) | no hit | no hit | no hit |
| 51 | `COc1ccc(-c2cc(Nc3cccc(Cl)c3)nc(C)n2)cc1` | - | no hit | no hit |
| 52 | `Cc1ccc(S(=O)(=O)NCC(O)Cn2c3ccccc3c3ccccc32)cc1` (centres unmarked) | no hit | no hit | no hit |
| 53 | `CN1C(=O)C2(C(C#N)=C(N)Oc3c2c(=O)n(C)c2ccccc32)c2ccccc21` (centres unmarked) | no hit | no hit | no hit |
| 54 | `CCCCOC(=O)c1c(N)n(CCc2ccc(OC)c(OC)c2)c2nc3ccccc3nc12` | no hit | no hit | no hit |
| 55 | `CC1(C)Cc2c(-c3ccccc3)c(-c3ccc(Cl)cc3)c(CC(=O)O)n2C1` | no hit | no hit | no hit |
| 56 | `Cc1cc(C)n2nc(NCc3ccc(C(C)C)cc3)nc2n1` | - | no hit | no hit |
| 57 | `CCn1c(=O)c([N+](=O)[O-])c(N2CCN(CCO)CC2)c2ccccc21` | no hit | no hit | no hit |
| 58 | `C=CCn1cc(CN2CCOC(CN)C2)c(C)n1` (centres unmarked) | no hit | no hit | no hit |
| 59 | `COc1ccc(-c2nn3c(NC(C)C)cc(C)nc3c2C)cc1OC` | - | no hit | no hit |
| 60 | `OC1CN(Cc2nnc(-c3ccccc3)o2)CCN(C2CCCC2)C1` (centres unmarked) | no hit | no hit | no hit |
| 61 | `CSCc1ccc(C(=O)N2CCC3(CC2)[C@H](O)C[C@@H]3OCCN)o1` | no hit | no hit | no hit |
| 62 | `CN(CCC(O)c1ccccc1)C(=O)Nc1ccnn1C1CCCCC1` (centres unmarked) | no hit | no hit | no hit |
| 63 | `CNc1oc(C=Cc2ccc(OC)c(OC)c2)nc1C#N` | - | no hit | no hit |
| 64 | `O=S1(=O)N=C(Nc2ccccc2N2CCOCC2)c2ccccc21` | - | no hit | no hit |
| 65 | `CC1=NN(c2ccccc2)C(=O)C1C(=S)SC1CC(=O)NC1=O` (centres unmarked) | no hit | no hit | no hit |
| 66 | `COc1cc(C=C2C(O)C3CCN2CC3)ccc1OCc1ccccc1` (centres unmarked) | no hit | no hit | no hit |
| 67 | `CCN(CC)C(=O)[C@@H]1C[C@@H](N)CN1C(=O)CCc1c(C)nc(O)nc1C` | no hit | no hit | no hit |
| 68 | `COc1cccc(CN2CCN(C3CCNCC3)CC2=O)c1` | no hit | no hit | no hit |
| 69 | `COc1cc(CO)ccc1OCc1ccc(C(=O)O)cc1` | no hit | no hit | no hit |
| 70 | `CC(=O)Nc1ccc(-c2cn(CCN3CCNCC3)nn2)cc1` | no hit | no hit | no hit |
| 71 | `N#CC1=C(N)OC2=C(C1c1ccccc1)S(=O)(=O)N(Cc1ccc(Cl)cc1)c1ccccc12` (centres unmarked) | hit | no hit | no hit |

Data from the ROBIN nucleic acid binder screens, doi:10.1002/anie.202211358.